According to PubChem BioAssay AID1259354 (Paczesny and Yang Labs, IUPUI and University of Michigan, 2018):
About 1,800 (2.3%) of roughly 78,000 compounds were called active. Inconclusive means that the source gave no clear call. Such entries were picked first, then a sample of the others. Cut-off read from the data, not from the text of the source: active = inhibition above about 30%; inconclusive = mostly about 10% to 28%; inactive = weaker than that.

Sequences of proteins named here, by UniProt entry; tags and fusion partners are left off. A change or cut given only in a name is not applied to a line headed by its entry.
UniProt Q01638: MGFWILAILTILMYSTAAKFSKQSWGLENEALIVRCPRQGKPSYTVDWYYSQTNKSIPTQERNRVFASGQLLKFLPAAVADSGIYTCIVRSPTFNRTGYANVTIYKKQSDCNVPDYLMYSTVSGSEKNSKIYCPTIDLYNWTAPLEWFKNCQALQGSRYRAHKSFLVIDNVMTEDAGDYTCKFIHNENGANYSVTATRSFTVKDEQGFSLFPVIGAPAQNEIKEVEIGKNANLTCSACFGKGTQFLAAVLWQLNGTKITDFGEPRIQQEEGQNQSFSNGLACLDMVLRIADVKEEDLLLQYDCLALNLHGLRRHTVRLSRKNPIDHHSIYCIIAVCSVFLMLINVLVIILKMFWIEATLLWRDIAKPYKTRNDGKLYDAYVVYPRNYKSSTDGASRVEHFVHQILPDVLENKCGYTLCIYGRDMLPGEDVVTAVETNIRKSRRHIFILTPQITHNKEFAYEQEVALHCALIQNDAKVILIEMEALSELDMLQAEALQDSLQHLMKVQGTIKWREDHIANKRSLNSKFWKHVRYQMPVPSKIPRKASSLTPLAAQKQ

Molecular target: Interleukin-1 receptor-like 1 (Homo sapiens) (UniProt Q01638)
Experiment: blocks human ST2 binding to IL-33, primary screen, biochemical, AlphaLISA (AID 1259354)
Conditions: AlphaLISA ST2-Fc/biotin-IL-33 interaction, 1 h; at 17 µM, hits give high values

| Compound | inhibition |
| --- | --- |
| CCOc1ccc(N2C(=O)c3cccc(N)c3C2=O)cc1 | inconclusive: 18% |
| COc1ccc2c(C)c(C(=O)O)oc2c1 | inactive |
| O=C(c1ccncc1)N1CCCC(C(F)(F)F)C1 (centres undefined) | inactive |
| CS(=O)(=O)N1CCC2(CC1)NCCc1[nH]cnc12 | inconclusive: 12% |
| O=c1c2ccccc2c(-c2cccs2)nn1CCc1ccccc1 | active: 35% |
| Cc1nnc(NC(=O)CSc2ccccc2)s1 | inconclusive: 13% |
| COc1cccc(Nc2nc3ccc(F)cc3s2)c1 | inconclusive: 14% |
| Cc1nc(-n2cnnc2)ccc1-c1ccc2c(c1)OCO2 | inconclusive: 13% |
| CN=c1scc(-c2ccc(Cl)cc2)n1C | inactive |
| COc1ccc(Cl)cc1N1C(=O)c2c(C)nc3ccccc3c2C1=O | active: 31% |
| O=C(CC1Sc2ccccc2NC1=O)Nc1ccc(OC(F)F)cc1 (centres undefined) | inconclusive: 10% |
| c1ccc2c(c1)Nc1ccc3ccccc3c1S2 | active: 39% |
| CCOC(=O)c1c(C)oc2cc(Br)c(OC(=O)CC)cc12 | inactive |
| Cc1nc(C(C)NC(=O)c2[nH]c3c(C)ccc(C)c3c2C)n[nH]1 (centres undefined) | inconclusive: 24% |
| COc1ccc(C2Oc3c(Br)cc(Br)cc3C=C2[N+](=O)[O-])cc1OC (centres undefined) | active: 56% |
| CCC(=O)Nc1cccc(C(=O)N[C@@H](CO)Cc2ccccc2)c1 | inconclusive: 15% |
| O=c1c2cnn(-c3ccc(Cl)cc3)c2ncn1Cc1ccccc1 | inconclusive: 12% |
| O=C1CCCC2=C1C(c1cc([N+](=O)[O-])ccc1O)C1=C(N2)c2ccccc2C1=O (centres undefined) | inconclusive: 22% |
| Cc1cccc(NS(=O)(=O)c2cccc3nonc23)c1C | inactive |
| COc1cc([N+](=O)[O-])ccc1NC(=O)COc1ccc(Br)cc1C | inactive |
| NS(=O)(=O)c1ccc(CCNS(=O)(=O)c2ccc3c(c2)CCN3C(=O)C2CC2)cc1 | inconclusive: 11% |
| O=c1[nH]c2c(n1-c1ccccc1)C=Nc1ccccc1N2 | inconclusive: 12% |
| O=C(Nc1cccc(F)c1)c1oc2ccccc2c1NC(=O)C1CC1 | inactive |
| CCCNC(=O)N1CC[C@@H](CC(=O)O)[C@@H](CC2=NCCc3ccc(C(C)(C)C)cc32)C1 | inconclusive: 12% |
| Cc1cc(C)cc(CCC(=O)N(C)CCc2cn[nH]c2)c1 | inactive |
| O=c1[nH]c(CN2CCOCC2)nc2c1C1(CCCC1)Cc1ccccc1-2 | inactive |
| CC(=O)Nc1ccc(NC(=O)c2ccc(C)c(Br)c2)cc1 | inactive |
| CC(C)c1cc(C(=O)N(C)CCC2CCCCO2)n(C)n1 (centres undefined) | inactive |
| CCCCOc1ccc(CNC(=O)CN2C(=O)c3cccnc3Sc3ccccc32)cc1 | inactive |

Two compounds drawn at random from those above:

| Compound | inhibition |
| --- | --- |
| CCC(=O)Nc1cccc(C(=O)N[C@@H](CO)Cc2ccccc2)c1 | inconclusive: 15% |
| O=C1CCCC2=C1C(c1cc([N+](=O)[O-])ccc1O)C1=C(N2)c2ccccc2C1=O (centres undefined) | inconclusive: 22% |
